Measured values taken from publication PMC6105217.
Results are given in words; binding and its absence hold for the method and conditions named. In cells and extracts the contact can be indirect. Here binding means that the protein was enriched with, or labelled near, the bait; the list need not be complete. Tags and fused reporters may be left off the sequences shown. Blank lines part the entries; values can stand above or below the binder they belong to.

Molecular target: T1, N-His-aIF5A produced in Sso PH1-16 (pMJ05-N-His-aIF5A) (Sulfolobus solfataricus) (UniProt Q97ZE8)
T1 sequence (chain, modified, recognised by anti-hypusine antibodies (hypusine or deoxyhypusine)): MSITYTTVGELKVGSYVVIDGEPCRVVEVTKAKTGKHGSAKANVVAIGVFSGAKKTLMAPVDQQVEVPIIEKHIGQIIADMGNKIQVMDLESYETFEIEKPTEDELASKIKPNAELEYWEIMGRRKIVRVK
Assay: affinity purification with mass spectrometry; N-His-aIF5A and co-purifying proteins from lysate of Sso PH1-16 (pMJ05-N-His-aIF5A) on Ni-NTA agarose; wash with 300 mM NaCl; whole eluate digested with trypsin, LC-MS/MS, label free quantification against a mock purification; enriched more than …

B1: RPL30e (50S ribosomal protein) (protein, UniProt Q980R3 1-108)
chain: MIKVSEQQVSFEGELKSLLKTGKVIFGAKRAIKYIKLSKVKMVIVASTLRGDLKQDIMHYAKLSNIPVYEYKGSGWDLGTLCGKPFMISTISIIDEGDSKILDIIKER
binding: binds

B4: Hypothetical protein SSO0845 (protein, UniProt Q97ZN9 1-224)
chain: MHSIRMGLLGDMRLYLDIETYRPKSAFVNEKVIAIGLIADQTDYKPESSNIWDLPKVEFKYFKEWKRDERSEEWEHDEYSVVTQFYKYLKELIEKWRRKEMYIEVVGFNILRFDIPLLIQKGVEHRVGSLEELNSLWHNTFTRDYLQMALPLNNMRFKGLQLEYLAEMLREKGVNVPKPYGKGEEVKSLYENKKYDEIIKHLEADLRITRIIDLNWPRLFKPTP
binding: binds

B5: Carbonic anhydrase (protein, UniProt Q97YU3 1-204)
chain: MISEYVDEEIKRREDYSLRRLKGIPNDRRLWILTCMDERVHVEEALGIRPEDAHIYRNAGGIVTDDAIRSASLTTNFFGTKEIIVITHTDCGMIRFTGDEVAKYFLDKGVKVNELQIDPLLPSLRLQSTEDFTKWFKFFRDLGANSPDDIALKNAEILKNHPLIPKNVTISAYVYEVETHKLRKPHQRLYELTSRFEHGTVVKE
binding: binds

B7: Oxidoreductase (protein, UniProt Q97UV9 1-304)
chain: MEKKPLGWTNEKISPLILGSWEFGTPSIIDENNAIKAIQRAIELGINAIDTAESYGNGLSETIIGRAISKFKREDLFIITKVSIDHLRYDDVLKASEGSLKRLNTSYIDLYLVHWPNHYVPIRETAKAMERLFNEGKIRYVGLSNFSLPLMREFREHLSKTDVAANELHYNVLFRDVEKEVLPYMLRENIPLLAYDALGLGYLIGRKEVRNEYRWYVLARETYIKNLEPLIEEISSIAKELGKTPAQVVLNWLVSKDNVFAIFNTTKEDHLKENLGSLGWSLRDSDLRRLDEAVKKVTIDYFAR
binding: binds

B9: Nop56 (C/D box methylation guide RNP) (protein, UniProt Q97ZH3 1-412)
chain: MMKIYLIEHVIGAVAYDENGNIVDYITNPRDLGKITEELLNNEKGIPFSATVELLKKVNPQEVVVENEAEVPKLQALGYRVSYEPYSKVSRIFRESLPKVAIDIKFASNEEDYYNFLHELSLEYTRRKLRSAAQKRDLLAIQAVRAMDDIDKTINLFSERLREWYSIHFPELDKLIEDHEEYATIVSRFGDRGFLTIDSLKELGFNEQRINRILDAAKKSIGADISEDDLSAMRMIANTILDLYNIRRNLNNYLEGVMKEVAPNVTALVGPALGARLLSIAGSLDELAKMPASTIQVLGAEKALFRALRSGGRPPKHGIIFQYPAIHTSPRWQRGKIARALAAKLAIAARVDAFSGRFIGDQLNEQLKKRIDEIKEKFAQPPPKKPQQQKPQQPQKQQAKGKKGGKRRGKRK
binding: binds

Now from value to binder:

binding: binds
B2: Hypothetical protein SS01412 (protein, UniProt Q97YB7 1-200)
chain: MLILCVNHKVQIPVKVKYNIMAYITDDFEFWAWVSSEPKVMRMFNELEKAFKRFEGSLMSLGYNYIYLDVFPFDQRRITVVFGEYEPLPVDELEGKEEERVMKERENYFSITFDNITPSPIEQPTLLSYEVYAMWWLHHEVPEESDFVNLEGIVEKGLFHCVNGDKREGKSQTKYLLDLGECYNNLIKVVNKRDFKFPLM

binding: binds
B3: MoxR-like ATPase (protein, UniProt Q97W74 1-382)
chain: MSEKTLLELPKKFMEALMAPFIGREEEAKVITLALLSKEHVILIGEPGTAKSALARRAAELLNAKFFMYLLTKYTEPAELFGALDINALKDGQYKRITKDRLPESQIAFLDEIFNANSAILNALLSLLNERVIYDGYNVIKVPLRTLISASNRVPDEPELEALYDRLLLRHYARPVGEELWKQLLDATWEIEFTNRWAVKEPIMNIEHLDKLYSYLSQVDLSGVKNKLLKLYAMLEEKGIHLSDRRKGKVLKVVSAHAILNSRLKATEEDLIVLKYIAPREIDDFEKVAALLSEELKTPIKYMKELNEIYNNIKEAAKYVEAANESDPRLIELIRSLRATRDRIVALGKESGDEKVEEFSKEVLSEIDKLIEKVARKLGIYP

binding: binds
B6: Pseudouridine methyltransferase Nep1 (protein, UniProt Q97WJ0 1-218)
chain: MHLNIILLEASLELVPKEIVNHPAVIKNAKRRNKKPEDTLLDISLHYHAMKYLENSHKRGRPDILHQALLVILTDPVIKGDIFIHTIQSKIIKVNPNMRPPKNYLRFIGLMEQLLKYGKIPINGDETLMEVTNLTLDNIVNRYDLILLSEKGEKINPEEICKLDEKWLLGIGAFPHGDFSDKILNLAKKIYSISGFPLETQQVLCRIFSACNSILGWP

binding: binds
B8: Hypothetical protein SS01383 (protein, UniProt Q97YE3 1-177)
chain: MESQLPKFLKEPEKYSRLRLLEALQELYLSIEMLKEGYSRNSASKLFLSWKALLSSIVVTNFGKIMETKKKEGKEDEIKWYMRIGYSAPTTGLIGIARDLENLGFKGLVNLTTAMLGIHRYAYNGLDEDISPFHSRSEAIISIKGLIKAEVEIVGSMKFGDEEKELFEKIKRELNNI

binding: binds
B10: Hypothetical protein SS01413 (protein, UniProt Q97YB6 1-139)
chain: MMSTSGFYQRSRRAIIYETDSLFRYTTEAELKFVIEKGVIMSYNPKGTYLTNLFTDDPNVAVKMLALSKLPRYRIGPISMSKKLFSKVKYVGIVTPKGKSRGGAKEYVFTDPIIIDVENLYVYDFKDRRTYTIRLPSIH

binding: binds
B11: Transcriptional regulator, AsnC family (protein, UniProt Q7LXS6 1-157)
chain: MSDSKKRTVDLDAIDRRLLIELTRDARTSLRRLAEEMNVSPATLHNRMTRMVQEGMIKSFVALLDYSKLGFALTGIIMAKVDGKHLVEFEKEIANADNVTAVYDVVGEYDVVIIAKFRSVEELDSFLKQLLKNPKIERTYTSIVLNVVKEDPRIRIF
